# Measured values as given in US11459570B2, “Transgenic mouse expressing amyloid precursor protein that has olfactory neuron degeneration” (The General Hospital Corporation, priority 2014, dated 2022).
# For at least one compound, name, drawing or mass did not settle the structure.
# Tested on: olfactory sensory neurons of Nd1 mice
# Assay: Silencing of transgene expression in adult Nd1 mice by oral doxycycline; cleaved-caspase3 positive cell counts
# Type: in vivo, mouse
# Settings: doxycycline via food for three months, p=0.25 vs controls, n=3
structure (smiles),measurement,value
C[C@H]1c2cccc(O)c2C(=O)C2=C(O)[C@]3(O)C(=O)C(C(N)=O)=C(O)[C@@H](N(C)C)[C@@H]3[C@@H](O)[C@@H]21 [doxycycline],"neuronal apoptosis (cleaved-caspase3 positive cells per section, normalized to littermate controls)",sufficient to rescue neuronal apoptosis to levels observed in control animals
